According to PubChem BioAssay AID2458 (Broad Institute, 2010):
The list shows a part of the results. Entries without a call are filed as inconclusive in the source.

By UniProt entry, the sequences of proteins in these tests, tags left out.
UniProt P08659, whole entry, looked up: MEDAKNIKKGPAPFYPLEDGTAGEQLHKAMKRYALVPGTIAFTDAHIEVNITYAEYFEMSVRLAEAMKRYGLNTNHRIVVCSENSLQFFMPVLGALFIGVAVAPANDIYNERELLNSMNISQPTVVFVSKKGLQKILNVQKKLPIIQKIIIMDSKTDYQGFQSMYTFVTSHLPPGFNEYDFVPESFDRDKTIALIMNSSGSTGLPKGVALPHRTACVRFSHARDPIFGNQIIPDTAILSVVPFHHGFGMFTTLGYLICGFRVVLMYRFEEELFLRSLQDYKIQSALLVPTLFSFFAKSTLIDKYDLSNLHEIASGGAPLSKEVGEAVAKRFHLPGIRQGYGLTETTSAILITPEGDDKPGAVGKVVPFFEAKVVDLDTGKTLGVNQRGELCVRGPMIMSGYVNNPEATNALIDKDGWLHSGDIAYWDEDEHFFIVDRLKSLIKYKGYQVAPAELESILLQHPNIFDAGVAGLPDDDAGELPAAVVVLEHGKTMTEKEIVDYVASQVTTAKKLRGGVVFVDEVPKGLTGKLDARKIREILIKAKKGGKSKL

Molecular target: Luciferin 4-monooxygenase (Photinus pyralis) (UniProt P08659)
Assay: Confirmatory luminescence dose response, luciferase translation or activity, H4 neuroglioma cells (AID 2458)
Details: at 1.2 µM (top of the series)

activity change, negative = inhibition: -37.3%
Compound: O=C(/C=C\Nc1ccc2c(c1)OCO2)c1ccccn1
